This note sets out measurements from PMC6379999.

In this series the target is SSP_Lrp (Streptomyces spiramyceticus 1941) (UniProt A0A411PXG6). Nature of the series: EMSA. Particulars: EMSA: 10 mM Tris-Cl pH 7.5, 50 mM NaCl, 1 mM EDTA, 4 mM DTT, 5% glycerol, 0.1 ng/uL negative-control DNA, 300 ug/mL acetylated BSA, 0.4 ng probe, 20 uL, 20 min; recombinant protein; residues 1-148; protein details: N-terminal His6 (pQE9); probe letters rebuilt from the primers and the genome. For orientation: Mobility shift assays separate free from complexed probe on a gel.

The exact form of at least one protein or probe is not confirmed.

Turning to “AGTCGCCGGTAGCTTATCCACCGTTCGCCGAGGCGGTTCAAGTGGCAGCGTTCAACCGCGATCCGGTCTTTATGGAATTCATATCTGCCCGCTGGCTTGATGAGTCGGGCCTCATGTCCGGAAGTCGATCCCGGCCGGGAGTGCGCGGCGATCCGCCCGGACGCCGAATGCCGTGGCCGGCACCCGTCCGGTAACGTCCTGCGGGGTACGGACGGCGGTCCGGCCGTCCATCAGAATCGGACGAACGGGATGAAATGTTATGGCGAGGGAGCGAAAGGAAGCGGGTGCGGAGGATTTACCGCAGCCCGTTCCAGGACCCTCGGCGATCTAGATCGGGTACCCTGATAGCGTAATAACCTGTCATTGTATTCGTA (double strand) [Pbsm23]”, the binding result was “binds”. Turning to “GGCAGGTAGGCCATTTGGGTTCGTGTCCGTCAAGGGGGCGTCGGCCCACACAGCCGTGGCGATGGTGCGTCCCGCGGGGTGTTCCGGGGGCTGTGCGGACGCGGCCGGCGCGACGTGTTTCTGATGGCATGTCACCTTCTGGGGGTGATCGGCGGTGAGGTGATCACGTCGCGTTGTGGAGCGATCTCGTGGAGTGGTCGGTCGTGGTGCCCCGGCACCACTCGTGGGGCGCTCGTGGTGGGTTTCCCCTCACGTTTCGGAGCGGTGGGAGCGGTCCGCGCCGAGGGTGCGTCGGTGGGGGAGCGAAGCGGAATGAGTGTGCCCGGTGTACCTGGGGCGGTCGGGGTGAATTCGCGATGCTGGTCCGAGTCCACTCGCAGGAATGACGA (double strand) [Pbsm42]”, the binding result is on record as “binds”.

For “GGGTGACCTCGCGGCGGACGGGTGGGTGGGAGCAGATGTCTAAGGCACCGCGCGGCCGCCGGGCAAGGCGTATCTGACAAAGAGTGTGAGCCGCCGCGCGACAGTGGTGTGTTCCCACCGCTGCACGGCCGGCGACGGTGGTTTCGTCACCGGGCGACGCGGATTTAATCATCCGGAAACACGGACGACGGTTCTTCGCGGCGGTGTGACGCGAGGTGTGCGGGAAGAATTGTGTGGCCTCGGCACCTGGATTTACGGAACGAATTAACTGAGGCTGGCCAGCAGGTCTTTTCCAGTGGATCAAGCGGCTTGTGAGGGTCATA (double strand) [Pist-acyB2]”, the binding result is “binds”.
